The list is a part of this screen's results and no random one: it gathers tests that were run many times, whatever their T/C, doses with no T/C, and many T/C values between a quarter and a half above the control. Further doses and runs are listed elsewhere. T/C: endpoint of the treated group in % of that of the vehicle group. Some entries give survivors of the animals treated and no T/C: the source files T/C as zero there, which appears to mark a toxic dose or a test without result, not a measured value. Some doses without a T/C left all or most animals alive at the check, yet need not have been tolerated: the source hardly ever lists a survival T/C far under the control, and the zero likely stands for such cases as well. Survivors were counted at the toxicity check, usually on the fifth day, unless a day is given; later deaths do not show. Schedules are NCI's codes, read here as Q, the interval in days (D) or hours (H), X, the number of doses. Where survival is the endpoint, the PubChem record calls one and a half times the control and up active, and a quarter to a half above the control has no call in these data; cut-offs in other NCI protocols can differ. Some entries were tested several times; their values stand side by side, smallest first. Some T/C values carry the count of animals alive at the toxicity check (mostly the fifth day); without a count, all were alive then.

This test relates to BDF1 mice, P388 leukemia ip, median survival T/C. The test is described as follows: NCI In Vivo Anticancer Drug Screen. Data for tumor model P388 Leukemia (intraperitoneal) in B6D2F1 (BDF1) mice. The conditions noted are these: T/C endpoint: median survival time, higher T/C = longer survival. In short, it runs like this: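 Reported as T/C, where T is the survival measurement in dosed animals and C the same measurement in vehicle controls.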

[1] abbreviates: dose: 12.5 mg/kg/injection, schedule: Q01DX009 (ip), vehicle: saline.
The mark [2] stands for this setting: dose: 50.0 mg/kg/injection, schedule: Q04DX003 (ip), vehicle: saline with Tween-80.
Setting [3] is: dose: 100.0 mg/kg/injection, schedule: Q04DX003 (ip), vehicle: saline with Tween-80.
Where [4] appears, read: dose: 200.0 mg/kg/injection, schedule: Q04DX003 (ip), vehicle: saline with Tween-80.
Setting [5] is: dose: 400.0 mg/kg/injection, schedule: Q04DX003 (ip), vehicle: saline with Tween-80.
The mark [6] stands for this setting: dose: 200.0 mg/kg/injection, schedule: Q04DX003 (ip), vehicle: saline.
The mark [7] stands for this setting: dose: 100.0 mg/kg/injection, schedule: Q01DX009 (ip), vehicle: Klucel (hydroxypropylcellulose) (HPC).
Setting [8] is: dose: 200.0 mg/kg/injection, schedule: Q01DX009 (ip), vehicle: saline.

On to `N[C@H](C(=O)O)[C@@H]1CC(Cl)=NO1`, for which the T/C reads like this: (dose: 6.25 mg/kg/injection, schedule: Q04DX003 (ip), vehicle: saline) 127 % of control; (dose: 32.4 mg/kg/injection, schedule: Q04DX003 (ip), vehicle: saline) 128 % of control; (dose: 36.0 mg/kg/injection, schedule: Q04DX003 (ip), vehicle: saline) 131 % of control; (dose: 54.0 mg/kg/injection, schedule: Q04DX003 (ip), vehicle: saline) 134 % of control; (dose: 60.0 mg/kg/injection, schedule: Q04DX003 (ip), vehicle: saline) 139 % of control; (dose: 90.0 mg/kg/injection, schedule: Q04DX003 (ip), vehicle: saline) 145 % of control. The T/C reads like this: (dose: 100.0 mg/kg/injection, schedule: Q04DX003 (ip), vehicle: saline) 149 % of control; (dose: 100.0 mg/kg/injection, schedule: Q04DX003 (ip), vehicle: water) 147 % of control; (dose: 150.0 mg/kg/injection, schedule: Q04DX003 (ip), vehicle: saline) 148 % of control. The survivor count under setting [1] is given as 8 of 8.
As for `O=C1c2ccccc2C(=O)c2c(NCCNCCNCCO)ccc(NCCNCCNCCO)c21`, the survivor count (dose: 200.0 mg/kg/injection, schedule: Q01DX009 (ip), vehicle: water) is 0 of 6.
For `OCn1cnc2c(SC3CCCC3)ncnc21`, the T/C (dose: 150.0 mg/kg/injection, schedule: Q01DX009 (ip), vehicle: Klucel (hydroxypropylcellulose) (HPC)) was 140 % of control. Besides, the survivor count is, setting by setting: (dose: 300.0 mg/kg/injection, schedule: Q01DX009 (ip), vehicle: Klucel (hydroxypropylcellulose) (HPC)) 1 of 6; (dose: 600.0 mg/kg/injection, schedule: Q01DX009 (ip), vehicle: Klucel (hydroxypropylcellulose) (HPC)) 0 of 6.
`Cc1cc[n+]2cc3ccc4ccccc4c3c(C)c2c1`: the T/C by setting is: (dose: 1.56 mg/kg/injection, schedule: Q01DX009 (ip), vehicle: saline) 130 % of control; (dose: 3.12 mg/kg/injection, schedule: Q01DX009 (ip), vehicle: saline) 135 % of control. Besides, the survivor count (dose: 6.25 mg/kg/injection, schedule: Q01DX009 (ip), vehicle: saline) is 5 of 6.
Regarding `COc1ccc2c3csc4ccccc4c-3nc2c1`, the survivor count by setting is: (dose: 50.0 mg/kg/injection, schedule: Q01DX009 (ip), vehicle: Klucel (hydroxypropylcellulose) (HPC)) 5 of 6; (dose: 50.0 mg/kg/injection, schedule: Q04DX003 (ip), vehicle: Klucel (hydroxypropylcellulose) (HPC)) 2 of 6; (dose: 150.0 mg/kg/injection, schedule: Q04DX003 (ip), vehicle: Klucel (hydroxypropylcellulose) (HPC)) 4 of 6; (dose: 225.0 mg/kg/injection, schedule: Q04DX003 (ip), vehicle: Klucel (hydroxypropylcellulose) (HPC)) 0 of 6; (dose: 300.0 mg/kg/injection, schedule: Q01DX001 (ip), vehicle: Klucel (hydroxypropylcellulose) (HPC)) 1 of 6; (dose: 335.0 mg/kg/injection, schedule: Q04DX003 (ip), vehicle: Klucel (hydroxypropylcellulose) (HPC)) 0 of 6.
In the case of `O=c1ccs[nH]1`, the survivor count under setting [2] was 4 of 6, the survivor count under setting [3] is reported as 0 of 6, the survivor count under setting [4] is 0 of 6 and the survivor count under setting [5] is recorded as 0 of 6.
`CCOC(=S)N/N=C(\C)CC`: the survivor count (dose: 10.0 mg/kg/injection, schedule: Q01DX009 (ip), vehicle: saline with Tween-80) was 0 of 6.
On to `O=C1CCCCC1N1CCCCC1` (stereo not drawn), for which, under “dose: 200.0 mg/kg/injection, schedule: Q01DX005 (ip), vehicle: saline with Tween-80”, the survivor count is listed as 2 of 5.
`O=NN(CCBr)C(=O)NCCBr`: the T/C (dose: 13.0 mg/kg/injection, schedule: Q01DX009 (ip), vehicle: gum acacia) was 133 % of control; the T/C (dose: 20.0 mg/kg/injection, schedule: Q01DX009 (ip), vehicle: gum acacia) was 145 % of control; the T/C (dose: 25.0 mg/kg/injection, schedule: Q01DX009 (ip), vehicle: gum acacia) was 138 % of control; the T/C under setting [6] was 127 % of control.
Turning to `C/C=C/C=C/C(=O)NO`, the survivor count under setting [7] is 6 of 6.
With `C1CC[N-]CC1.Oc1ccccc1C=NCCN=Cc1ccccc1O.[CH3-].[Rh+2]`, the T/C reads like this: under setting [2], 127 % of control; under setting [3], 144 % of control; under setting [4], 144 % of control.
As for `CN(C)c1ccc(C(=O)c2ccc(N(C)C)cc2)cc1`, the T/C reads like this: under setting [7], 127 % of control [5 of 6 alive]; (dose: 200.0 mg/kg/injection, schedule: Q01DX009 (ip), vehicle: Klucel (hydroxypropylcellulose) (HPC)) 131 % of control; (dose: 265.0 mg/kg/injection, schedule: Q01DX009 (ip), vehicle: saline with Tween-80) 135 % of control; (dose: 400.0 mg/kg/injection, schedule: Q01DX009 (ip), vehicle: Klucel (hydroxypropylcellulose) (HPC)) 146 % of control [5 of 6 alive]; (dose: 400.0 mg/kg/injection, schedule: Q01DX009 (ip), vehicle: saline with Tween-80) 148 % of control; under setting [5], 127 and 135 % of control. Further, the T/C reads like this: (dose: 600.0 mg/kg/injection, schedule: Q01DX009 (ip), vehicle: saline with Tween-80) 144 % of control; (dose: 600.0 mg/kg/injection, schedule: Q04DX003 (ip), vehicle: saline with Tween-80) 140 % of control.
As for `CN(C)CC(Cl)CCl` (stereo not drawn), the T/C (dose: 50.0 mg/kg/injection, schedule: Q01DX009 (ip), vehicle: saline) is 127 % of control. In addition, the survivor count (dose: 600.0 mg/kg/injection, schedule: Q01DX009 (ip), vehicle: saline) is given as 0 of 6.
With `COC1OC(COC(C)=O)C(OC(C)=O)C(OC(C)=O)[CH]1[Hg][O]C(C)=O` (stereo not drawn), the survivor count under setting [1] was 3 of 6.
In the case of `O=C(O)c1cc[c]([Hg][S]c2ncnc3nc[nH]c23)cc1`, the survivor count is, setting by setting: (dose: 50.0 mg/kg/injection, schedule: Q01DX009 (ip), vehicle: suspension in saline) 3 of 6; (dose: 100.0 mg/kg/injection, schedule: Q01DX009 (ip), vehicle: suspension in saline) 0 of 6; (dose: 200.0 mg/kg/injection, schedule: Q01DX009 (ip), vehicle: suspension in saline) 0 of 6.
With `CCN1CCC(O)(c2ccc(Br)cc2)C1` (stereo not drawn), the survivor count under setting [8] is listed as 3 of 6.
Turning to `Oc1cccc2c1[O][Sb][O]2`, the T/C was 142 % of control (dose: 25.0 mg/kg/injection, schedule: Q01DX009 (ip), vehicle: saline with Tween-80); 133 % of control (dose: 25.0 mg/kg/injection, schedule: Q04DX003 (ip), vehicle: saline with Tween-80); 133 % of control (dose: 37.5 mg/kg/injection, schedule: Q04DX003 (ip), vehicle: saline with Tween-80); 147 % of control (dose: 50.0 mg/kg/injection, schedule: Q01DX009 (ip), vehicle: saline with Tween-80). Moreover, the survivor count (dose: 100.0 mg/kg/injection, schedule: Q01DX009 (ip), vehicle: saline with Tween-80) is 0 of 6.
In the case of `OCC(F)(F)C(F)(F)C(F)(F)CO`, the T/C was 143 % of control (dose: 88.0 mg/kg/injection, schedule: Q04DX003 (ip), vehicle: saline); 139 % of control (dose: 132.0 mg/kg/injection, schedule: Q04DX003 (ip), vehicle: saline); 139 % of control under setting [6]; 134 % of control (dose: 300.0 mg/kg/injection, schedule: Q04DX003 (ip), vehicle: saline).
Turning to `O=S(O)OS(=O)O`, the T/C under setting [8] is 125 % of control.
For the compound `Cc1c(N)cc([N+](=O)[O-])c(C)c1[N+](=O)[O-]`, the survivor count (dose: 200.0 mg/kg/injection, schedule: Q01DX009 (ip), vehicle: saline with Tween-80) is given as 3 of 6.

Values taken from PubChem BioAssay AID328 (DTP/NCI, 2004).
